Results from paper PMC4747373.
These are yes or no findings as the source states them, for the method shown. In cells and extracts the contact can be indirect.

Target: EGFR (human (endogenous in KBv200 and MCF-7/adr)) (UniProt P00533)
Experiment: co-IP; KBv200 and MCF-7/adr cells treated with a range of concentrations of cetuximab for 48 h, lysed in RIPA; precleared lysate (1 mg total protein) incubated with 2 ug anti-EGFR antibody or anti-IgG antibody, protein G-agarose overnight at 4 C; Western blot with anti-ABCB1

binding: no binding
Substance: ABCB1/P-glycoprotein (from UniProt P08183 1-1280)
